Measurements taken from the supplement of paper PMC5949888.
± gives the standard deviation of the averaged measurements. Most values lie at the floor of the assay. Slopes are relative: functional sequences can read slightly below zero.

system: Saccharomyces cerevisiae PS128 hsf1 delta, HSF1(1-493) fusion; assay: growth estimate (transactivation domain function in HSF1 fusion, heat-shock survival) (a.u. (slope of normalised read count over time)); higher = stronger growth at 37°C, i.e. more transactivation activity; details: library: random library
Protocol: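 Random 60-nt DNA library encoding peptides of up to 20 aa, fused to the C-terminus of yeast HSF1 residues 1-493 (C-terminal TAD deleted) and expressed from the native HSF1 promoter on a CEN plasmid in hsf1-deleted S. cerevisiae PS128. Cells were selected at 37°C on -trp 5-FOA plates for 0, 2, 4, 6 and 8 days and amplicons were sequenced. Growth estimate is the slope of a robust linear fit of total-sum-normalised read counts (normalised to the first time point) over time, using at least 2 replicates. Sequences are classed functional (TAD activity) above a threshold of -0.13, set from stop-codon control sequences.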

Row | Substance | growth estimate
1 | VSVDAKGGSPVLPWYLRGAH | < -0.25
2 | LQMYQHNKFNG | < -0.25
3 | TQCPPGSGDHIDHSPTLVRA | < -0.25
4 | TNRFIATSGSVRAPMAGPGV | < -0.25
5 | FGSPTWAFYDVAGDESVHTM | 0.137
6 | YPCIGDNIRRFSCSIVTP | < -0.25
7 | MAMSERY | 0.0934
8 | WTAQFGEFEI | < -0.25
9 | RHRRGGSATYVALVYLGGTA | < -0.25
10 | SECPRSG | < -0.25
11 | LVINARCGWGTFYSDWWSQV | < -0.25
12 | LLPYRLQTYCSVGSATRVLE | < -0.25
13 | PGWFRVVIQ | < -0.25
14 | TLRRTGRFTGPGYILPKGET | < -0.25
15 | RKHLKSLRCRF | < -0.25
16 | LGKWTSHQIY | < -0.25
17 | ITSRVLHSWHRTRRDPIGGV | < -0.25
18 | TEDTHANVPVNTIAVRCRPP | < -0.25
19 | EIITQVSRRLWTWSYNV | < -0.25
20 | QLF | < -0.25
21 | NPLMGLGSFREDPHVLGLIA | < -0.25
22 | LRAIEGNSK | < -0.25
23 | NKE | < -0.25
24 | KNPVVVSMVYDSCGQLEGRA | < -0.25

Row | Substance | growth estimate
25 | STLADTTLMAIGPPNVRCDS | < -0.25
26 | IRISVEPDRSGPSIDHHIAA | < -0.25
27 | QYSPAWRRHGGR | < -0.25
28 | VLFAEDHTRRGMRPTAKFRE | < -0.25
29 | PRM | < -0.25
30 | IAGNDLAGLPSDPDWCVLRF | < -0.25
31 | SYMPTTRH | < -0.25
32 | QVSGASTPERSSTGTDLSLG | < -0.25
33 | SAIGSHRMSGVTH | < -0.25
34 | YNFEQ | < -0.25
35 | SRTQVL | -0.229
36 | NRQLIVDLSPIVSIEGVALS | < -0.25
37 | QGRRAYRRFGRGGRRGETLA | < -0.25
38 | VMLRLSG | < -0.25
39 | APVGHKKVPPE | < -0.25
40 | IVICLIRMDHRGHAAT | < -0.25
41 | LNAPPMLRKPDWGCQGIHCT | < -0.25
42 | TMVRGHEQQSCW | < -0.25
43 | PINC | < -0.25
44 | MTIVNDV | < -0.25
45 | LNFWECDAGRRVRA | < -0.25
46 | NRNVIQGSKDVVGALHSLVR | < -0.25
47 | EGDGLRNGDDPI | < -0.25
48 | STRRRHPYAI | < -0.25

Row | Substance | growth estimate
49 | WQVTSAKYSMQRSG | < -0.25
50 | RGWYKS | < -0.25
51 | LEV | -0.23 ± 0.028
52 | RIHAWANAPHRAGFTFESCP | < -0.25
53 | RRRYLLR | < -0.25
54 | VCLKQRRTTGLGIHMALIRC | < -0.25
55 | ALPIPSDH | < -0.25
56 | RTRLSSLLDPGLIKCPIRQR | < -0.25
57 | WVCIAAHHHDQVAGAHWCTS | < -0.25
58 | TLLEEPITRVLDALEKPTGT | < -0.25
59 | QEDILVGSITGAWLLIVGYH | < -0.25
60 | GYTGDSAMFSWTQRFMQLTE | < -0.25
61 | ASLVAGRRAQCV | < -0.25
62 | NVSPATRRDLKPLFMVGVIH | < -0.25
63 | RSPLYEDASKVSHS | < -0.25
64 | KTYQE | < -0.25
65 | PRSKEVRSCRS | < -0.25
66 | VGCNGSRQEQTRDYPAECSG | < -0.25
67 | LGFRLRSVVRVRKLPRQGCQ | < -0.25
68 | ATKRRGHVELRR | < -0.25
69 | PKERHLSEPCEWTGKINLVA | < -0.25
70 | AASGNGIRSVVLTAVPVLPS | < -0.25
71 | NVNSAQGILRGLLVSRQFRI | < -0.25
72 | RSWRSDIIHGS | < -0.25

Row | Substance | growth estimate
73 | LPLIGVLLAWRFHVQGDLCI | < -0.25
74 | CWGPQGRMSTGGGSTVLYAT | < -0.25
75 | SGTQHLG | < -0.25
76 | VRSSHWPISTLDRALNPCMV | < -0.25
77 | QKAGGSSSAIRRNAQGPPTS | < -0.25
78 | SRSLIGGSRHEGALSIRLKG | < -0.25
79 | VHGDSALVLSAVTRYVTRTY | < -0.25
80 | EVSRADWL | < -0.25
81 | GISLVDNWIGAYGTPIRTIM | < -0.25
82 | NVGRPLPSAGRACSDSTSSC | < -0.25
83 | RTSIISPLLHVGGGSRSWQV | < -0.25
84 | GVALWTIDLPHFRAQVRGRL | < -0.25
85 | RRCRTS | < -0.25
86 | SPVIAMTVRVYMIFGRGAAG | < -0.25
87 | KIIRHMTNLFYSSGSCMSEA | < -0.25
88 | SNEDGCRVMYRTV | < -0.25
89 | GVSAYP | < -0.25
90 | LVNGVFRVSWTRPYQSLSVP | < -0.25
91 | CWRGARRMNLFTGEAFLPND | -0.187
92 | RASIRQSRIGGSATATPVGV | < -0.25
93 | SMSAGGS | < -0.25
94 | VVNFP | < -0.25
95 | VNKDLIIRRHFRLRP | < -0.25
96 | NYFHVSSCVVEITDSVSASS | < -0.25

Row | Substance | growth estimate
97 | RCTQFTMDPTTGQQGFDGQN | < -0.25
98 | RGWDWQITGPC | < -0.25
99 | PDAPDIEAARKSKSGVAVEN | < -0.25
100 | YGLHGFVGL | < -0.25
101 | KVSFLEKGFVRSRTGGI | < -0.25
102 | VWQRRRREIRVRQLKLDYYS | < -0.25
103 | GRAKEARMDGSGGPVRAMIR | < -0.25
104 | PAEVTLGSVALGLGYTS | < -0.25
105 | PVCILQRIEREFPVAATRQF | < -0.25
106 | ATSYIGGFCDGLILAPRGWH | < -0.25
107 | RLLRWDDGFTKRIHL | < -0.25
108 | QNFEFSRVLTISDVSGVRVL | < -0.25
109 | GQPL | < -0.25
110 | RIVGAKLKQMVGRHHLVEPA | < -0.25
111 | FRETH | < -0.25
112 | PHKQCWESRTQNTNCLNGRA | < -0.25
113 | RLFFWIQEISIPRY | < -0.25
114 | DALA | < -0.25
115 | AMPTSGGLRAKPSMGH | < -0.25
116 | YPDRSGG | < -0.25
117 | RAAADIRHWSQSHFTTNHDW | -0.243
118 | HGLSWDWHTSGMRASEGSTC | < -0.25
119 | NQDLIDTCYANSMIMCQWNE | -0.0659
120 | NFSGPSEVTLSAQGLASKAQ | -0.219

Exported with tabs: entries from further up.
Row	Substance	growth estimate
67	LGFRLRSVVRVRKLPRQGCQ	< -0.25
68	ATKRRGHVELRR	< -0.25
69	PKERHLSEPCEWTGKINLVA	< -0.25
70	AASGNGIRSVVLTAVPVLPS	< -0.25
71	NVNSAQGILRGLLVSRQFRI	< -0.25
72	RSWRSDIIHGS	< -0.25
73	LPLIGVLLAWRFHVQGDLCI	< -0.25
74	CWGPQGRMSTGGGSTVLYAT	< -0.25
75	SGTQHLG	< -0.25
76	VRSSHWPISTLDRALNPCMV	< -0.25
77	QKAGGSSSAIRRNAQGPPTS	< -0.25
78	SRSLIGGSRHEGALSIRLKG	< -0.25
79	VHGDSALVLSAVTRYVTRTY	< -0.25
80	EVSRADWL	< -0.25
81	GISLVDNWIGAYGTPIRTIM	< -0.25
82	NVGRPLPSAGRACSDSTSSC	< -0.25
83	RTSIISPLLHVGGGSRSWQV	< -0.25
84	GVALWTIDLPHFRAQVRGRL	< -0.25
85	RRCRTS	< -0.25
86	SPVIAMTVRVYMIFGRGAAG	< -0.25
87	KIIRHMTNLFYSSGSCMSEA	< -0.25
88	SNEDGCRVMYRTV	< -0.25
89	GVSAYP	< -0.25
90	LVNGVFRVSWTRPYQSLSVP	< -0.25
91	CWRGARRMNLFTGEAFLPND	-0.187
92	RASIRQSRIGGSATATPVGV	< -0.25
93	SMSAGGS	< -0.25
94	VVNFP	< -0.25
95	VNKDLIIRRHFRLRP	< -0.25
96	NYFHVSSCVVEITDSVSASS	< -0.25
97	RCTQFTMDPTTGQQGFDGQN	< -0.25
98	RGWDWQITGPC	< -0.25
99	PDAPDIEAARKSKSGVAVEN	< -0.25
100	YGLHGFVGL	< -0.25
101	KVSFLEKGFVRSRTGGI	< -0.25
102	VWQRRRREIRVRQLKLDYYS	< -0.25
103	GRAKEARMDGSGGPVRAMIR	< -0.25
104	PAEVTLGSVALGLGYTS	< -0.25
105	PVCILQRIEREFPVAATRQF	< -0.25
106	ATSYIGGFCDGLILAPRGWH	< -0.25
107	RLLRWDDGFTKRIHL	< -0.25
108	QNFEFSRVLTISDVSGVRVL	< -0.25
109	GQPL	< -0.25
110	RIVGAKLKQMVGRHHLVEPA	< -0.25
111	FRETH	< -0.25
112	PHKQCWESRTQNTNCLNGRA	< -0.25
113	RLFFWIQEISIPRY	< -0.25
114	DALA	< -0.25
115	AMPTSGGLRAKPSMGH	< -0.25
116	YPDRSGG	< -0.25
117	RAAADIRHWSQSHFTTNHDW	-0.243
118	HGLSWDWHTSGMRASEGSTC	< -0.25
119	NQDLIDTCYANSMIMCQWNE	-0.0659

Exported with tabs: part of the list above
Row	Substance	growth estimate
40	IVICLIRMDHRGHAAT	< -0.25
41	LNAPPMLRKPDWGCQGIHCT	< -0.25
42	TMVRGHEQQSCW	< -0.25
43	PINC	< -0.25

The listing continues.

Row | Substance | growth estimate
121 | DTLV | < -0.25
122 | LQIFLVKKSRHKILNRVGKG | < -0.25
123 | VLISK | < -0.25
124 | GRNHIPIGERQFSLCRITPE | < -0.25
125 | LRT | < -0.25
126 | WYCRCA | < -0.25
127 | FGLHASRTGINWIVGARPRG | -0.246
128 | LGSRLDLYHGRGKRSDLPLV | < -0.25
129 | RPKHDLSKGASLSE | < -0.25
130 | NRRCHLGRVSPCYTVSLP | -0.229
131 | AAIETSL | < -0.25
132 | GVGVGARDRVPCALGLSWRE | < -0.25
133 | SQTTGARRHLCSIRNHSERG | < -0.25
134 | PDPRNLRRREAVAACKC | < -0.25
135 | RADNC | < -0.25
136 | TSILSLW | < -0.25
137 | RPYGSGGLV | < -0.25
138 | FRGNEH | < -0.25
139 | NRGNATCKRSAPLPESGYLR | < -0.25
140 | AEVA | < -0.25
141 | LKLMDRRYKLTEKQHLPLGS | < -0.25
142 | PPTPGYGHVEPPLGKVTSQV | < -0.25
143 | RHVRVRYDPFCNNR | < -0.25
144 | PGYFNSTVPCYVSPGIHHGL | < -0.25

Row | Substance | growth estimate
145 | VEGGKVKKLKHEPSAISRGS | < -0.25
146 | RPMGGVEGIRFGARQAWYRG | < -0.25
147 | TISRELEKHTGIRYFSY | -0.25
148 | LRRSHVDFFVSESPRVPTRC | < -0.25
149 | DVVVWHLRETRHTFELGPWG | < -0.25
150 | HVARKECPDSEAWALMRKSV | < -0.25
151 | RTILSLVIEISVVPNVGGPD | < -0.25
152 | DGL | -0.243
153 | GNAPSGIYPVENSGVKAGFS | < -0.25
154 | FVRVTIFGLIGRVVPFARFV | < -0.25
155 | RPTPQSSG | < -0.25
156 | YDNAHSEGDG | < -0.25
157 | RFFGHYGKLRTWRKDGS | < -0.25
158 | PRNGEGLSRSSTHLTQFSLP | < -0.25
159 | IMVAHPVRKLLRPVSESLDL | < -0.25
160 | ALVELTSYPSPVVPCCQC | < -0.25
161 | ISGQPTKVRTYQKLPGIEP | < -0.25
162 | VARPCIRMARAR | < -0.25
163 | VSLIGFQVHSYQRYLITM | < -0.25
164 | CGPLPLSLGLQPVN | < -0.25
165 | FSAFIVA | -0.246
166 | CREGPVSKTRFLDGVNRSAQ | < -0.25
167 | VMSSRGEQ | < -0.25
168 | QHKELDRRTIQYRGHNVHSV | < -0.25

Row | Substance | growth estimate
169 | RMYRSC | < -0.25
170 | WVRGGGS | < -0.25
171 | EQPTDIG | < -0.25
172 | PGQDMVKFRLLPCSYVLCRR | < -0.25
173 | SRARDLPRRDNQMRRGLEYR | < -0.25
174 | HAPGDRVAPIC | < -0.25
175 | TNRTVRFTRQWRANTNSYRD | < -0.25
176 | PSH | < -0.25
177 | SDTESLNKDHLIGRGKSLSQ | < -0.25
178 | VPTTVWLKYGIDQCDITNSP | < -0.25
179 | KRTLMGKRGFKAASELGHLG | < -0.25
180 | VIASKRRGVALFVAV | < -0.25
181 | VGCQ | < -0.25
182 | LSTQRAIPGRRC | -0.248
183 | HRLGWVQRTTLLLE | < -0.25
184 | SAHRGHGLKSWNVTPLGTSE | < -0.25
185 | GEKPPALVLISCSGVAFIGA | < -0.25
186 | WQAFTNKIQACGLCPIAVRF | < -0.25
187 | TRNLGRSTQWIVEAGNLVA | < -0.25
188 | SSSCK | < -0.25
189 | SFRPRGSDMG | < -0.25
